PubChem BioAssay AID493246 | Drosophila RNAi Screening Center – 2011

Aim: 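Genome-wide search for dsRNAs that reduce cell number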 (primary screen)
Cell system: Drosophila Kc and S2R+ cells
Reagent: long dsRNA against Drosophila genes
Detection: 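Raw, unnormalised count of remaining cells in each well; per-plate z-scores of cell number underlie the calls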
Scale: Kc cell number and S2R+ cell number: higher = more cells remaining
Hit rule: 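Counted as a hit if cell number falls by a z-score of at least 3 within its plate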
The deposit covers about 21,000 reagents; below is a random part of those with a known target gene and a result. Over the whole deposit, 429 (2%) were called active. 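Values are raw and not normalised between plates; calls rest on per-plate z-scores that were not deposited.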 Unmarked entries are inactive. Names joined by + are all predicted targets of the reagent. Reagent sequences are not shown. Not given: the amount of reagent, the time to read-out.

target,PubChem SID,"Kc cell number, rep 1","Kc cell number, rep 2","S2R+ cell number, rep 1","S2R+ cell number, rep 2"
bgm,SID104183287,1.04e6,1.18e6,8.99e5,9.36e5
CG33552,SID104181343,1.48e6,1.55e6,9.64e5,1.12e6
Uxs,SID104190733,1.27e6,1.37e6,1.19e6,1.18e6
CG14294,SID104194566,1.49e6,1.53e6,1.06e6,1.22e6
CG9628,SID104190874,1.67e6,1.75e6,1.21e6,1.31e6
ND-51L1,SID104185864,1.58e6,1.63e6,1.18e6,1.37e6
Pkg21D,SID104180564,1.29e6,1.32e6,7.95e5,8.64e5
CG17118,SID104182371,1.52e6,1.61e6,1.25e6,1.33e6
L2HGDH,SID104181874,1.46e6,1.58e6,1.31e6,1.22e6
Prx6c + CG12896 + Prx6b,SID104185940,1.50e6,1.59e6,1.21e6,1.33e6
Grl65a,SID104188629,1.38e6,1.46e6,1.12e6,1.28e6
CG32669,SID104198656,1.45e6,1.68e6,1.10e6,1.24e6
SuUR,SID104191084,1.29e6,1.31e6,1.25e6,1.31e6
Exo70,SID104190566,1.55e6,1.49e6,1.17e6,1.23e6
CG6040,SID104195746,1.59e6,1.61e6,1.14e6,1.19e6
CG6420,SID104195827,1.52e6,1.58e6,9.66e5,1.10e6
CG42340,SID104197250,1.48e6,1.77e6,1.04e6,1.09e6
CG42340,SID104197633,1.51e6,1.51e6,1.01e6,1.11e6
CG42340,SID104198097,1.53e6,1.39e6,9.71e5,1.08e6
GstZ2,SID104196271,1.51e6,1.53e6,1.21e6,1.30e6
emei,SID104190689,1.54e6,1.55e6,1.04e6,1.17e6
mxt,SID104180343,1.21e6,1.30e6,6.60e5,8.16e5
CG13218,SID104186132,1.60e6,1.59e6,1.27e6,1.37e6
Ripalpha,SID104182449,1.52e6,1.62e6,1.19e6,1.30e6

Records above whose target name starts with G or g (2):
target,PubChem SID,"Kc cell number, rep 1","Kc cell number, rep 2","S2R+ cell number, rep 1","S2R+ cell number, rep 2"
Grl65a,SID104188629,1.38e6,1.46e6,1.12e6,1.28e6
GstZ2,SID104196271,1.51e6,1.53e6,1.21e6,1.30e6
